Laboratory results as given in paper PMC12373910.

Biological target: T1, GST-GalU (UniProt P0AEP3)
T1 sequence: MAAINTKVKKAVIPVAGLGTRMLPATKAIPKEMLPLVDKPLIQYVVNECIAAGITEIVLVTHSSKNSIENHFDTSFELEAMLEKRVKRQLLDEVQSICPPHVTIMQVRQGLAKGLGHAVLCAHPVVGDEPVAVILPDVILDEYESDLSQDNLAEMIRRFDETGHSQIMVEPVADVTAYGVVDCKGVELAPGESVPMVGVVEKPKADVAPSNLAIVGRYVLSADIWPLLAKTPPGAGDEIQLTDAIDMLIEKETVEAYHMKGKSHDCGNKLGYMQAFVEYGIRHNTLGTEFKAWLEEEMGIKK
Experiment: co-IP; GST-GalU and Gnarl3-3xFLAG co-expressed in E. coli TOP10; whole cell lysate (50 mM Tris pH 7.4, 150 mM NaCl, 10 mM EDTA, 0.5% NP40, 5 mM DTT) incubated with magnetic glutathione agarose beads 1 h at room temperature; eluted with 50 mM reduced glutathione; Western blot with anti-GST and anti-FLAG

Gnarl3-3xFLAG
binding: binds

These are yes or no findings as the source states them, for the method shown. In cells and extracts the contact can be indirect. Binding can be weak; no strength is given. Where a sequence is shown, tags or fusion partners need not be part of it.
